{"source": "patent US20130274235A1", "about": "“TREATMENT OF MOTOR NEURON DISEASE” (THE GENERAL HOSPITAL CORPORATION, priority 2010, published 2013)", "test_system": "IGF-II mRNA", "test": "IGF-II expression assay, qPCR detection, in primary spinal cord cultures", "type": "cell-based, mice", "conditions": "NSAID series, FIGS. 3 and 4", "description": "Quantitative PCR utilizing SYBR green I (Molecular Probes, Eugene, Oreg.) or specific Taqman probes was used to confirm differential gene expression. RNA extracted from 100-200 LCMed motor neurons were reverse transcribed using Superscript III (Invitrogen). 2 μl of diluted cDNA was amplified (DNA Engine Opticon real-time PCR machine, Bio-Rad), in […] reactions containing 900 nM primer and 250 nM probe in Taqman Universal Master Mix (Applied Biosystems). Reactions were run in duplicate and each gene analyzed in at least three different animals. Reaction parameters were as follows: 50° C. for 2 min, 95° C. for 10 min, and 40 cycles of 95° C. for 15 s and 60° C. for 1 min. Controls lacking template and/or Superscript were included. The absolute copy number for each gene was quantified using a standard curve from human GAPDH plasmid and amplified products were normalized against rat GAPDH expression. Primers and probes (Integrated DNA technologies) were as follows: rat GAPDH: Forward primer: […]\nTwo libraries of FDA-approved drugs (NINDS and Harvard LDDN) were screened for their ability to up-regulate IGF-II expression. Candidate compounds were screened in an IGF-II expression assay using a qPCR detection methodology in primary spinal cord cultures or using a luciferase reporter assay. […]", "note": "At least one compound was matched to its structure with a doubt left."}
{"smiles": "Cc1cnc(NC(=O)C2=C(O)c3ccccc3S(=O)(=O)N2C)s1", "note": "[meloxicam]", "values": [{"measurement": "IGF-II inducing activity (in words)", "value": "strong IGF-II inducing activity"}]}
